The numbers were not newly measured in US20230165842A1, “NEW USES” (priority 2020, published 2023), which cites them from elsewhere.

The data set relates to Vero E6 and Calu-3 cells. Particulars: approx. 7× the most efficacious antiviral concentration of 300 μM.

Consider `COC(=O)C1=C(C)NC(C)=C(C(=O)OC)C1c1ccccc1[N+](=O)[O-]` [Compound 51, nifedipine], for which the cytotoxic effect result was “did not show a significant cytotoxic effect”.
